Data reported in patent US20070141581A1, “Membrane androgen receptor as a therapeutic target for the prevention/promotion of cell death” (University of North Texas Health Science Center at Fort …, priority 2005, published 2007).
For at least one compound, name, drawing or mass did not settle the structure.

Test system: ERK
Test: ERK phosphorylation in C6 glial cells (Western blot)
Format: cell-based, Rat
Experimental: Materials and Methods. Cell culture. Rat glioma cells (C6; American Type Culture Collection, Manassas, Va.) were propagated in Dulbecco's Modified Eagle Medium (DMEM; Invitrogen, Carlsbad, Calif.) supplemented with 10% charcoal-stripped fetal bovine serum (FBS; Hyclone, Logan, Utah), and maintained at 37° C. in a humidified environment containing 5% CO2.
Treatment of cultures. C6 glial cells were treated with either vehicle control (DMSO, 0.1%), dihydrotestosterone (DHT) (Steraloids Inc., Newport, R.I.), or 5α-androstan-17β-ol-3-one-3-o-carboxymethyloxime:BSA (DHT-BSA) (Steraloids Inc.) at the concentrations indicated for 30 minutes, to assess the effects of these hormones on ERK and Akt phosphorylation. […] Inhibition of the classical androgen receptor was achieved using the androgen receptor antagonist, Flutamide (3 μM; Sigma-Aldrich, St. Louis, Mo.), which was applied 30 minutes prior to treatment with the hormone. Inhibition of MEK, the signaling protein upstream of ERK was achieved using U0126 (10 μM; Cell Signaling, Beverly, Mass.), also pre-incubated for a period of 30 minutes prior to hormone administration.
Western blot analysis. Following treatment with hormone and/or inhibitor, C6 glial cells were harvested into lysis buffer containing protease and phosphatase inhibitors as described previously (25). Following homogenization, samples were centrifuged at 99,000×g for 15 min at 4° C., and the resulting supernatants were evaluated for total protein concentrations using the BioRad DC (Biorad Labs, Hercules, Calif.) protein assay kit [based on the method of Lowry; (26)]. […] Antibody binding to the membrane was detected using a secondary antibody (either goat anti-rabbit or rabbit anti-goat) conjugated to horseradish peroxidase (1:20,000; Pierce, Rockford, Ill.) and visualized using enzyme-linked chemiluminescence (ECL, Amersham, Arlington Heights, Ill.) with the aid of the UVP imaging system. […]

`CC(C)C(=O)Nc1ccc([N+](=O)[O-])c(C(F)(F)F)c1` [Flutamide] was tested, and the “effect of AR antagonist on DHT:CMO-induced ERK phosphorylation” value (Flutamide 3 μM) was “blocked”, the “effect of AR antagonist on DHT-induced ERK phosphorylation” value (Flutamide 3 μM applied 30 min prior to DHT) was “inhibited” and the “effect of AR antagonist on DHT-BSA inhibition of ERK phosphorylation” value (Flutamide 3 μM, DHT-BSA 0.01, 0.1, 1.0 μM, 30 min) was “not prevented”.
